{
  "sequences": {"note": "Amino acid sequences for entries named in this document (tags omitted).", "UniProt Q14764": "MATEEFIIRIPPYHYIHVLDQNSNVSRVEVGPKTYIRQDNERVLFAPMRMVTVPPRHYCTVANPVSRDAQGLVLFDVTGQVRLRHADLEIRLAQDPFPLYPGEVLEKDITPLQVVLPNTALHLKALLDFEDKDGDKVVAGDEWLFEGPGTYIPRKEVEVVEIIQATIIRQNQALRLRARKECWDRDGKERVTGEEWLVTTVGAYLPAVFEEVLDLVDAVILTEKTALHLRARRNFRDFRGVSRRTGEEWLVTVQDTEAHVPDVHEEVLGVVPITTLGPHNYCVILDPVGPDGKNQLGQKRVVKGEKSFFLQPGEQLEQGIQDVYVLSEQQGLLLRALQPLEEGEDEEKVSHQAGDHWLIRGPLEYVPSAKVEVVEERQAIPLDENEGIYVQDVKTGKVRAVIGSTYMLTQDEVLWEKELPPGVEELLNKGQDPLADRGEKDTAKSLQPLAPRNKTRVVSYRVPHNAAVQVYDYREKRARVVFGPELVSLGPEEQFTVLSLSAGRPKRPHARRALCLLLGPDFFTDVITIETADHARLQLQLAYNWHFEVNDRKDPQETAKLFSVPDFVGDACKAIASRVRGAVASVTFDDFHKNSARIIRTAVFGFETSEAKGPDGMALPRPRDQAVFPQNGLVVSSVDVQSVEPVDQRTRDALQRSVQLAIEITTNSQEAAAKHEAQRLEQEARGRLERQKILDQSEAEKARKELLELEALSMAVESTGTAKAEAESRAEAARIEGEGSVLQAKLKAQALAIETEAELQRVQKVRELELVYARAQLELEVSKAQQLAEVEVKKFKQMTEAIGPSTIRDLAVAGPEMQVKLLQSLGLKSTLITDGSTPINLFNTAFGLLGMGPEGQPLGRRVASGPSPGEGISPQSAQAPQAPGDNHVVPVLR"},
  "source": "paper doi:10.1101/2024.06.27.601040",
  "about": "(bioRxiv, 2024)",
  "binders": {"B1": {"name": "SMC6 (protein, UniProt Q96SB8 1-1091)", "chain": "MAKRKEENFSSPKNAKRPRQEELEDFDKDGDEDECKGTTLTAAEVGIIESIHLKNFMCHSMLGPFKFGSNVNFVVGNNGSGKSAVLTALIVGLGGRAVATNRGSSLKGFVKDGQNSADISITLRNRGDDAFKASVYGNSILIQQHISIDGSRSYKLKSATGSVVSTRKEELIAILDHFNIQVDNPVSVLTQEMSKQFLQSKNEGDKYKFFMKATQLEQMKEDYSYIMETKERTKEQIHQGEERLTELKRQCVEKEERFQSIAGLSTMKTNLESLKHEMAWAVVNEIEKQLNAIRDNIKIGEDRAARLDRKMEEQQVRLNEAEQKYKDIQDKLEKISEETNARAPECMALKADVVAKKRAYNEAEVLYNRSLNEYKALKKDDEQLCKRIEELKKSTDQSLEPERLERQKKISWLKERVKAFQNQENSVNQEIEQFQQAIEKDKEEHGKIKREELDVKHALSYNQRQLKELKDSKTDRLKRFGPNVPALLEAIDDAYRQGHFTYKPVGPLGACIHLRDPELALAIESCLKGLLQAYCCHNHADERVLQALMKRFYLPGTSRPPIIVSEFRNEIYDVRHRAAYHPDFPTVLTALEIDNAVVANSLIDMRGIETVLLIKNNSVARAVMQSQKPPKNCREAFTADGDQVFAGRYYSSENTRPKFLSRDVDSEISDLENEVENKTAQILNLQQHLSALEKDIKHNEELLKRCQLHYKELKMKIRKNISEIRELENIEEHQSVDIATLEDEAQENKSKMKMVEEHMEQQKENMEHLKSLKIEAENKYDAIKFKINQLSELADPLKDELNLADSEVDNQKRGKRHYEEKQKEHLDTLNKKKRELDMKEKELEEKMSQARQICPERIEVEKSASILDKEINRLRQKIQAEHASHGDREEIMRQYQEARETYLDLDSKVRTLKKFIKLLGEIMEHRFKTYQQFRRCLTLRCKLYFDNLLSQRAYCGKMNFDHKNETLSISVQPGEGNKAAFNDMRALSGGERSFSTVCFILSLWSIAESPFRCLDEFDVYMDMVNRRIAMDLILKMADSQRFRQFILLTPQSMSSLPSSKLIRILRMSDPERGQTTLPFRPVTQEEDDDQR"}, "B2": {"name": "GMPPA (protein, UniProt Q96IJ6 1-420)", "chain": "MLKAVILIGGPQKGTRFRPLSFEVPKPLFPVAGVPMIQHHIEACAQVPGMQEILLIGFYQPDEPLTQFLEAAQQEFNLPVRYLQEFAPLGTGGGLYHFRDQILAGSPEAFFVLNADVCSDFPLSAMLEAHRRQRHPFLLLGTTANRTQSLNYGCIVENPQTHEVLHYVEKPSTFISDIINCGIYLFSPEALKPLRDVFQRNQQDGQLEDSPGLWPGAGTIRLEQDVFSALAGQGQIYVHLTDGIWSQIKSAGSALYASRLYLSRYQDTHPERLAKHTPGGPWIRGNVYIHPTAKVAPSAVLGPNVSIGKGVTVGEGVRLRESIVLHGATLQEHTCVLHSIVGWGSTVGRWARVEGTPSDPNPNDPRARMDSESLFKDGKLLPAITILGCRVRIPAEVLILNSIVLPHKELSRSFTNQIIL"}, "B3": {"name": "ACAD11 (enzyme, UniProt Q709F0 1-780)", "chain": "MKPGATGESDLAEVLPQHKFDSKSLEAYLNQHLSGFGAEREATLTIAQYRAGKSNPTFYLQKGFQTYVLRKKPPGSLLPKAHQIDREFKVQKALFSIGFPVPKPILYCSDTSVIGTEFYVMEHVQGRIFRDLTIPGLSPAERSAIYVATVETLAQLHSLNIQSLQLEGYGIGAGYCKRQVSTWTKQYQAAAHQDIPAMQQLSEWLMKNLPDNDNEENLIHGDFRLDNIVFHPKECRVIAVLDWELSTIGHPLSDLAHFSLFYFWPRTVPMINQGSYSENSGIPSMEELISIYCRCRGINSILPNWNFFLALSYFKMAGIAQGVYSRYLLGNNSSEDSFLFANIVQPLAETGLQLSKRTFSTVLPQIDTTGQLFVQTRKGQEVLIKVKHFMKQHILPAEKEVTEFYVQNENSVDKWGKPLVIDKLKEMAKVEGLWNLFLPAVSGLSHVDYALIAEETGKCFFAPDVFNCQAPDTGNMEVLHLYGSEEQKKQWLEPLLQGNITSCFCMTEPDVASSDATNIECSIQRDEDSYVINGKKWWSSGAGNPKCKIAIVLGRTQNTSLSRHKQHSMILVPMNTPGVKIIRPLSVFGYTDNFHGGHFEIHFNQVRVPATNLILGEGRGFEISQGRLGPGRIHHCMRTVGLAERALQIMCERATQRIAFKKKLYAHEVVAHWIAESRIAIEKIRLLTLKAAHSMDTLGSAGAKKEIAMIKVAAPRAVSKIVDWAIQVCGGAGVSQDYPLANMYAITRVLRLADGPDEVHLSAIATMELRDQAKRLTAKI"}},
  "molecular_target": "endogenous MVP (native vault) of A549 cells (human (endogenous in A549)) (UniProt Q14764)",
  "test": "affinity purification with mass spectrometry",
  "note": "These are yes or no findings as the source states them, for the method shown. Binding seen in cells or lysates may run through a third protein. Here binding means that the protein was enriched with, or labelled near, the bait; the list need not be complete.",
  "data": [
    {"binder": "B1", "values": [
      {"measurement": "binding", "value": "binds"}
    ]},
    {"binder": "B2", "values": [
      {"measurement": "binding", "value": "binds"}
    ]},
    {"binder": "B3", "values": [
      {"measurement": "binding", "value": "binds"}
    ]}
  ]
}
